Data from paper PMC2646128.
These are yes or no findings as the source states them, for the method shown.

The chains behind the UniProt entries cited, without tags or fusion partners.
UniProt P07548: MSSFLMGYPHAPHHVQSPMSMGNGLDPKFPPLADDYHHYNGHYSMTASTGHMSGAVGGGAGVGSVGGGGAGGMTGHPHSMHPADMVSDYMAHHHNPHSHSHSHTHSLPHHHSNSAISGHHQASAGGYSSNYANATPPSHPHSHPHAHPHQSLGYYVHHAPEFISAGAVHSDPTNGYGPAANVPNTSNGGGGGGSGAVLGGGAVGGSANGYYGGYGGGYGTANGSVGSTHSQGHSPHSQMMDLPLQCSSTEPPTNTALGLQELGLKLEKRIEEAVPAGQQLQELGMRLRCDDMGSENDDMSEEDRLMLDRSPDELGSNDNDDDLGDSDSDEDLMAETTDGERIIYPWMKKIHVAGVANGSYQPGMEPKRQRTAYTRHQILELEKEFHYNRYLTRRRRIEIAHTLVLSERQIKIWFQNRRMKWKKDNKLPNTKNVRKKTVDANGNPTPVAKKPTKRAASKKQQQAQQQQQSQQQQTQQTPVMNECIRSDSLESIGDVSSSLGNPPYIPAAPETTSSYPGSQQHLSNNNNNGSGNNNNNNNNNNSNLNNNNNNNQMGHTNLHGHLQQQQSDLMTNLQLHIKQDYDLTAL

B1: Sloppy paired 1 (protein, UniProt P32030 1-322)
chain: MVKSEMEFKSNFSIDAILAKKPINTATQPIKTEPVHHHHQYVHPYSNSDGELSASEDFDSPSRTSTPMSSAAESLSSQNNDKLDVEFDDELEDQLDEDQESEDGNPSKKQKMTAGSDTKKPPYSYNALIMMAIQDSPEQRLTLNGIYQYLINRFPYFKANKRGWQNSIRHNLSLNKCFTKIPRSYDDPGKGNYWILDPSAEEVFIGETTGKLRRKNPGASRTRLAAYRQAIFSPMMAASPYGAPASSYGYPAVPFAAAAAAALYQRMNPAAYQAAYQQMQYQQAPQAHHHQAPHPAQMQGYPQQLNAELFQRMQFFGKFPSS
B2: Brinker (protein, UniProt Q9XTN4 1-704)
chain: MDSSSEQLNGSGALNFKRPKDSSENATNSHTNNGNSSGSPKMGSRRIFTPHFKLQVLESYRNDNDCKGNQRATARKYNIHRRQIQKWLQCESNLRSSVANNQQQQQQQQQQQQQQQQQQQLLPQQSVSPTPAVKVFHQLSHPLVHQLHHHHAAAVGHHHHHAAHHHAAHHHHAAAAAAAAAAAAAAAAAHHHAAHHLLAANGMVPHPLAAHPHLHVPVAMHPQMQHQKEQQQQQQQLQQEQQQQDQQQSQQETPATIATNGSNQGSSNVLSAAKIAAVVAAAMATSNGNPTPTATIPASSSSSSNTLPSSNNSSCHNSSSSSNSCNSNQVPIQVPILSGSPGSTSSASHIPHVPFAYHHNLHGYLENRLEAVATPAPMDLSLGSSARRQMQLHEKDPSGVDLTFRKRKVITSPMQPDKISKLEEVIKKEPETETENEDVEVDVETEQPEEHKLPSKQVKLFKPYLLDDDEEQDHHHHHHHHRQEDLDEGAAEEEQDDEEESRYADDDEVDSKEAADKKQRRLKKKPSAINEQREPIIWSNHPYPGGCVSPGSSITSSFQCPTSMQQQQTFPVAGGSPNQQFQDNCSSSKATTPLSPFSAPALSPTGFCCPKGSPVSGYESSSSTYSDSGSNYSLNLQLHAVYNDNLMYMQQQQQQQQQQHHLQHQQHLQRWLDQESLATARTSSVNRPLILVADTAPTNLTLVA
B3: Empty spiracles (protein, UniProt P18488 1-494)
chain: MTKMIPPVPTAAAAVMMPTPKQKIGFSIESIVGNDVSTAGGNSTPDLSGPQSPPPGERNVPGSPPQTPPATLTLIPGSPPHHLMAPPAHGLPYPHPHAQQQHLQAPHPHPHLSPAQQHVLHQHLLMQQQHPGTPKSHQDIQELLQRLHHNAAMASGLSPLQTRLSPETEQPQMAVSLKRERSPAPPAMEQAENPAQRIQPPHTPPKSVSPQSSQPSSSPTLLISSPHATPPQQQQQQPPPNYPKPAMMHPGGAGPMMMPGMPPAGLVRPFPMGPGGPPMPQGQPGLPDIKALPPYINAPPELPPQHNPHLIAAAQFQMAAALQAGHVLGPAAAAAAAAGLPPHAAQFMPNPGMARDSYQLYPWLLSRHGRIFPHRFPGSFLVPPFRKPKRIRTAFSPSQLLKLEHAFESNQYVVGAERKALAQNLNLSETQVKVWFQNRRTKHKRMQQEDEKGGEGGSQRNMHNGSGDEDDDELIDMEMDECPSDEEHELDASH
B4: Engrailed (protein, UniProt P02836 1-552)
chain: MALEDRCSPQSAPSPITLQMQHLHHQQQQQQQQQQQMQHLHQLQQLQQLHQQQLAAGVFHHPAMAFDAAAAAAAAAAAAAAHAHAAALQQRLSGSGSPASCSTPASSTPLTIKEEESDSVIGDMSFHNQTHTTNEEEEAEEDDDIDVDVDDTSAGGRLPPPAHQQQSTAKPSLAFSISNILSDRFGDVQKPGKSMENQASIFRPFEASRSQTATPSAFTRVDLLEFSRQQQAAAAAATAAMMLERANFLNCFNPAAYPRIHEEIVQSRLRRSAANAVIPPPMSSKMSDANPEKSALGSLCKAVSQIGQPAAPTMTQPPLSSSASSLASPPPASNASTISSTSSVATSSSSSSSGCSSAASSLNSSPSSRLGASGSGVNASSPQPQPIPPPSAVSRDSGMESSDDTRSETGSTTTEGGKNEMWPAWVYCTRYSDRPSSGPRYRRPKQPKDKTNDEKRPRTAFSSEQLARLKREFNENRYLTERRRQQLSSELGLNEAQIKIWFQNKRAKIKKSTGSKNPLALQLMAQGLYNHTTVPLTKEEEELEMRMNGQIP

target: Deformed (D. melanogaster) (UniProt P07548); test: native gel or EMSA; translation lysates with Dfd protein and with a co-regulatory factor on conserved boxes 1 to 3 of the rpr-4S3/3' enhancer as shift probes; 1 mM ZnSO4 for Disco

binding | Binder
no binding | B1
no binding | B2
no binding | B3
no binding | B4
